Source: PubChem BioAssay AID1508600 (Functional Genomics Laboratory (NCATS/FGL), 2020)
Among all 53,000 sequences or so, about 3,700 (7%) were called active.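 Rule for the calls: active = gene knockdowns whose robust z-score for IL-1 alpha signal is at least 2 or at most -2, so actives lie on both sides; inactive = the rest.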 The list shows a part of the results.

Experiment: Components of the Cytosolic LPS Sensing Pathway: Gene Identification via Genome-wide siRNA Screen;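 note: robust z of the log signal after scaling to non-targeting control siRNA wells of the plate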
Settings: RAW264.7 macrophages, IL-1a HTRF, actives lie on both sides, screened at 100 nM (by protocol), cells primed 5 h with Pam3CSK4 first
How it was run: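 IL-1a HTRF of supernatants after 24 hour LipidA transfection of Pam3CSK4-primed (5 hours) RAW264.7 cells, 48h post-siRNA transfection (100 nM). Scores: percent of plate negative-control median, then log-based robust z-score.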

Sequence	z-score
GGCCAUUGAGCUCAACCCUTT against Sgta	inactive: -1.88
GGAUAUGGAGACACAGAUGTT against Cd99l2	inactive: 1.45
GGAUUUUGUUUCAGGUGGATT against Itgb8	inactive: 1.78
GCUUCAAACCUCUUGCUCATT against Dmtn	inactive: 1.22
CCACACUAGAAUGAACAUATT against 3830417A13Rik	inactive: 0.206
GAACCUUCUGCUUUGAUGCTT against Olfr641	inactive: 0.119
GGUGUACCCUGAAUUUGAATT against Wdr62	inactive: -1.67
GGAAUUCAGGAUAUAAGGATT against Fut7	inactive: -0.193
GCCGAAUUGGACAAGUCUATT against Plxnd1	inactive: 0.37
GGUGAUCGGCUCUUAGAGATT against Uncx	inactive: -0.241
GGCAGAGAAUCAGCUCCUUTT against Il16	inactive: 0.377
GCAUUCUACAACGAUCCCUTT against Hdac5	inactive: 0.908
GGAGGACGUGAACUUUGACTT against Stk32c	inactive: 0.648
CCAUAGUUUUGGUUACCAATT against E330037G11Rik	inactive: -0.213
GGACCAGAUUGCUAAUGAGTT against Fam13a	inactive: -0.0932
GGGCUGGAUUUUCUCCAGATT against Med26	inactive: -0.355
UUCACUGUAAGAAUUGUCUTT against Vmn1r93	active: -2.11
CCAAGUCUUUGCCUACGUGTT against Dsn1	active: 2.39
GGAAAUCAGAACUGUAUCUTT against 2310022B05Rik	inactive: -1.8
GGAAUGGACAAAAUGAUUCTT against Cct4	inactive: 1.53
GGAUCAAGAAUUAGAAAAGTT against Abcc9	inactive: -0.85
GGUGUAAUGUCUUUGCUAATT against Spag6l	inactive: 0.49

Sequence	z-score
GAGUUCUCUCUCACAGCCCTT against Gp1bb	inactive: -0.409
GCGAAAGCAGGAUACUCCUTT against Mtmr11	inactive: 1.01
GUGUUCGAACAACAUUGUATT against Map3k7	inactive: 0.352
GGCAAAGCUCCAUCAUCUGTT against Aste1	inactive: -0.682
GCUAUGAAAGAGGGAAGCUTT against Cyp2c54	inactive: 0.164
GGCUAUCUGAUCAAGCCCATT against Pcgf5	inactive: 0.111
GGUGAUGUCAAGAGUUUUCTT against Hacd2	active: 3.56
CCUACCAUAGCAACACUAUTT against Kcna2	active: 3.14
GCGUGAACGUAUUUGUUACTT against Pcdhgc3	inactive: 0.203
GCUUGUUUUCCUUAAGGGATT against Cr1l	inactive: 0.685
GCCCUUCGGGACUUUAUUGTT against Gusb	inactive: 0.763
GGUAUUGGACAAUCAGAUATT against Cit	inactive: 0.674
CGAUCUACAUCUGCAUCAUTT against Olfr1212	inactive: -1.2
GCUCGAGAACAGUACCAUUTT against Hlcs	inactive: 0.182
GGCCUUUCUAUAUAGAGCCTT against Slc38a9	inactive: -0.321
GGUUGUGGAAGAAGGACUCTT against Med13l	inactive: 0.911
GGUCUUCAACGAAACCAACTT against Ly6g6c	inactive: 0.287
GGAGUUCUGUGAAAUCUUCTT against Camkv	inactive: 0.554
GGGCCAAGAGCUUCUUUGATT against Ahr	inactive: -1.46
CCUCUCUACAUCCACUACUTT against Pogz	active: 3
GAGAAACAACAAUUUGGGATT against Gm20815	active: 2.07
GGGUCUUUAUAAGUCUAUGTT against Kbtbd2	inactive: 1.16

Sequence	z-score
CCAUGGUCUAGCACAGUGGTT against Cpn2	inactive: -0.079
GCAUCCAAUAGGAUUCAUGTT against A930012O16Rik	inactive: 0.286
GCUUCUUGAUCCAACUGGATT against Zfyve27	inactive: 0.362
GGUCAUGACAUCAUUGGCGTT against Kcng4	inactive: -0.142
CGCAGGACGAUUAUGACGUTT against Pcdhb12	inactive: 0.753
GGAUAUGAACCCUACUCUUTT against Tmem255a	inactive: -1.77
GGAACUGAAGGGCAAUAUCTT against Kifc5b	inactive: 1.99
GGAAGAAGUACUCCAACUCTT against Eps8l2	inactive: 1.7
GCUGAAAUCGAAAACCCGCTT against Atp6v0a1	inactive: 0.766
GGAGAUCAGCAGUUCAUUUTT against Csprs	inactive: -1.66
GGAAUGGGAUAGAUUUGUUTT against Ung	active: 2.51
GGAAUCAGCAAUGGACCCUTT against Parn	inactive: -0.818
GCAGCUGAGAAAGUCGUUCTT against Ppp1r35	inactive: -1.22
CCGCCUCUUUGAAGCCCAATT against Pdrg1	inactive: -0.271
GGAAGAACGACAAGAACAUTT against Tgfbr2	inactive: 1.02
GGAGAGCAUCAUAUUUGGCTT against Gnb5	inactive: 0.57
GGAAUCAGUGACCUUUUUCTT against Arf2	active: -2.05
GGAGACAACAGAUUUCCUGTT against Bcl2l12	inactive: -0.956
GGCUCUGGAUAAUUACUAUTT against Eif1a	inactive: 0.284
GGUUUACCUCUAUGCUAUGTT against Upk3a	inactive: 1.39
GCAAUGGUGAGCAUUAAAATT against Ifit1bl2	inactive: -1.74
CCUAAAACCUUCAAGUCUUTT against Ppme1	inactive: -0.344

4 neighbouring records from above, for reference:
Sequence	z-score
GGGUCUUUAUAAGUCUAUGTT against Kbtbd2	inactive: 1.16
CCAUGGUCUAGCACAGUGGTT against Cpn2	inactive: -0.079
GCAUCCAAUAGGAUUCAUGTT against A930012O16Rik	inactive: 0.286
GCUUCUUGAUCCAACUGGATT against Zfyve27	inactive: 0.362

Following part:

Sequence	z-score
GCAAUUUCGGGUACUCAUATT against Gfus	inactive: -0.845
UCGUGUGCCUGAUGAUCACTT against Abcc5	inactive: -0.889
GGUUUGGCAAAGAAACACATT against Itpa	inactive: 1.5
CCCAAUUUGAUUAUAGGUUTT against Olfr1243	inactive: -0.0212
GCCCUUGAUUGACAAGGAATT against Mrps7	inactive: 0.148
CGAACAUUUCAUCUGAUGATT against Ntrk2	inactive: -1.42
GGACCCAUUCUGUGGGUAATT against Ikzf2	inactive: -0.896
GCAACACACCAUAUCAGGATT against Tas2r135	inactive: -0.322
GGUAUUUUUGCAUUUGUCCTT against Pip4p2	inactive: 1.32
CGAGUGAAAGACCAUAUAATT against Zfp866	inactive: -1.56
GCAUUAUGGGCUUUUAUGATT against Dnaja1	inactive: 0.384
GGUGUAGAAUAGGACAAAUTT against Ntsr2	inactive: 0.43
GGGCACAAGGUCAUAACUGTT against Piga	inactive: -0.0465
GUCAUCGCUCCCAAGAAGGTT against D8Ertd738e	inactive: 0.477
GGUUGCUAAUAGGGAAGAUTT against Uimc1	inactive: -0.194
GGAUGCAUUUCUGAGCCACTT against Tacc2	inactive: -1.62
GCCGUGGAGGCUAAAAUCCTT against Sepsecs	inactive: 0.185
GGUAGAGGUGGAAUGUAGCTT against Qprt	inactive: 1.36
GGAUUCCUAAAUUCUGUGATT against Haus3	inactive: 1.26
GCAGAUUUGCACUGAAUCATT against Ndrg3	inactive: 0.131
GGCCACCAAGAAAUUCAAATT against Cd22	active: 4.16
GGAACAAUACAUCGACACUTT against Grin2c	inactive: 0.183

Sequence	z-score
CGAAUGCUGUACUUCAAAATT against Fsip1	inactive: 1.49
GGAGUUUGCAAAAAAUUCUTT against Olfr294	inactive: -0.434
CCAAGCUUAGCAAGGAGUATT against Cyp2f2	inactive: -1.92
GAAAGCGGAGAUACUGGAGTT against Hes7	inactive: -0.723
CGUCUAACCACCAUUCGGUTT against Orai2	inactive: -0.642
GGCACUCCUAAUCCUUUCCTT against 9430077A04Rik	inactive: 0.0426
CGACUUUUCUCAUUAUGAGTT against Ythdf1	active: -2.58
GCUGCGAUAUUUAAUUCAGTT against Slc10a7	inactive: 1.47
GGUGAUUGGCUGGAUCUACTT against Ctns	inactive: 0.661
GGAGUCUGCUCUCAUUCUUTT against Slc30a1	inactive: -0.214
AUGCACCAUGCCAUUGACCTT against Oxct2a	inactive: 0.736
GGCUGACACACUUCUACAUTT against D630003M21Rik	inactive: 0.44
GGCCACAAACAGAAUUAUCTT against Mrpl2	inactive: -0.219
GGAUGACCUACGAGUGUUATT against Taf5	inactive: 0.552
GGCUGAUGUAAUCUCUAAATT against Slc9a8	inactive: 1.26
GGUCAAUGUAGCUCCCAUGTT against Opa3	inactive: -0.56
GCUUGAUCCGAUUAGCAGATT against Mcm9	inactive: 1.19
GCGUGUGCGUGAUAAGUAUTT against Cep131	inactive: 0.862
GGACCUGUUGAUAUUGGCCTT against Atp5j	inactive: 0.499
